The AC50 is the concentration at which the activity in the assay is half-maximal.

Molecules are shown by their SMILES. This is one part of the list. These are further read-outs of the screen, such as a control signal, another cell line or another target. No call is given for them. The list favours compounds with an active or inconclusive main result. Potencies come from curve fits of mixed quality, noted in brackets.

The assay in a line: qHTS Assay to Find Inhibitors of Chronic Active B-Cell Receptor Signaling. The settings on record: ABC-DLBCL IkBa-CBG/CBR reporter, luminescence ratio (green luciferase fused to IkBa over red control in TMD8 lymphoma cells), 4 h. The method, boiled down:
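Cell line TMD8 (human ABC DLBCL), stably expressing tet-inducible CBG68-IkBa fusion and CBR; IMDM/0.5% FBS; cpd up to 46 uM; dox induction, 4 h, 37C/5% CO2; dual luminescence; green/red ratio; MG132 control.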
In general terms: qHTS replaces the single test concentration by a dilution series.

The mark [1] stands for this setting: measured here: CBR red luminescence, cell number.
The mark [2] stands for this setting: measured here: IkBa-CBG green luminescence.

As to `CCCCOc1ccc(NC2=NC3(CCCCC3)N=C(N)N2)cc1`, under setting [1], the AC50 was 16.4 µM [rising, partial curve, poor fit]. Still for that read-out and setting: with `CC(C)CSc1nc2c(c(=O)[nH]c(=O)n2C)n1CC(O)COc1cccc2ccccc12` (stereo not given) the figure was 6.31 µM [rising, single point]; with `Cc1ccc2oc(C(=O)Nc3cc(C)on3)c(C)c2c1`, 29.1 µM [rising, single point]. Still for that read-out and setting: with `COc1cc(C(=O)N2CCN(c3ccccc3Cl)CC2)ccc1OCC(=O)N1CCOCC1` the figure was 2.31 µM [rising, full curve, poor fit]. Turning to `Cc1cccc(NC(=O)C2C3CCCCC32)c1` (stereo not given), the AC50 under setting [1] was 4.47 µM [rising, full curve, poor fit]. As to `Cc1ccc(N2CCN(/N=C/c3ccccc3)CC2)cc1`, under setting [1], the AC50 is 22.4 µM [rising, single point]. Turning to `CC(C)c1ccc(/C=N/n2cnnc2)cc1`, under setting [1], the AC50 is 7.08 µM [rising, full curve, poor fit]. Consider `COc1cc(S(=O)(=O)N2CCCCCC2)ccc1-n1cnnn1`, for which the AC50 under setting [1] was 29.1 µM [rising, single point]. Same read-out and setting: under `O=C(COc1ccc(S(=O)(=O)NCc2ccccc2)cc1Cl)NCC1CCCO1` (stereo not given) stands 23.1 µM [falling, single point].

For `COc1cccc(Nc2sc(C(=O)c3ccc(Cl)cc3)c(N)c2C(=O)NCc2ccc(C)cc2)c1`, the AC50 reads like this: under setting [1], 4.47 µM [rising, full curve, poor fit]; under setting [2], 11.2 µM [falling, partial curve].

`O=C(Nc1ccccc1)c1ccc(Br)c(S(=O)(=O)Nc2cccnc2)c1`: the AC50 under setting [1] was 5.17 µM [falling, partial curve, poor fit]. On the same count and under the same terms, with `CCCCOC(=O)NC1CCS(=O)(=O)C1` (stereo not given) the figure was 4.11 µM [falling, single point]. For `O=C(OCC(=O)c1ccc[nH]1)c1ccc(F)c(S(=O)(=O)N2CCOCC2)c1`, the AC50 under setting [1] was 20.6 µM [rising, single point]. Still for that read-out and setting: with `O=C(Cc1cccc2ccccc12)Nc1ccc2oc(-c3ccccc3)nc2c1` the figure was 6.51 µM [rising, single point]; with `O=C(Nc1sccc1C(=O)NCc1ccco1)c1cccnc1`, 32.6 µM [falling, partial curve, poor fit]; with `CC(OC(=O)c1cccc(N2C(=O)c3ccccc3C2=O)c1)C(=O)Nc1ccc(N(C)C)cc1` (stereo not given), 2.31 µM [rising, partial curve].

Take `CCCCn1c(=O)[nH]c(=O)c2c1nc(-c1ccccc1OC(F)F)n2C`: the AC50 under setting [1] was 35.5 µM [falling, single point]. The same measure, in the same setting: under `O=C(N/N=C/c1ccoc1)c1ccccc1F` stands 11.2 µM [falling, partial curve, poor fit]; under `COc1cccc(OCc2nc3ccccc3[nH]2)c1`, 25.1 µM [falling, single point]. On to `Cc1ccc(-c2cc(-c3ccco3)c(C#N)c(=O)[nH]2)cc1`, for which the AC50 under setting [2] is 3.98 µM [rising, full curve].

For the compound `COc1ccccc1N(Cc1cc(=O)[nH]c2ccccc12)C(=O)c1ccc([N+](=O)[O-])cc1`, the AC50 under setting [1] was 35.5 µM [falling, partial curve, poor fit]. In the case of `Cc1nc(C)c(NC(=O)N2CCc3ccccc32)cc1NC(=O)N1CCc2ccccc21`, under setting [1], the AC50 is 23.1 µM [rising, single point]. Still for that read-out and setting: under `O=C(CSc1ccccc1)Nc1ccc(C(=O)Nc2ccc(O)cc2)cc1` stands 35.5 µM [rising, single point].

On to `CCOC(=O)COc1ccc(C2NC(C(=O)O)CS2)cc1` (stereo not given), for which the AC50 under setting [1] is 0.58 µM [falling, partial curve, poor fit]. Same read-out and setting: under `CCOC(=O)c1ccc(N2C(=O)CC(N3CC(C)OC(C)C3)C2=O)cc1` (stereo not given) stands 6.51 µM [falling, single point]; under `COCCOc1ccc(C(F)(F)F)cc1NC(=O)CN1C(=O)NC(C)(c2ccc3c(c2)OCO3)C1=O` (stereo not given), 29.1 µM [falling, single point]. Same read-out and setting: with `O=C(NC(=S)Nc1cccnc1)c1cccc(Br)c1` the figure was 3.55 µM [rising, partial curve, poor fit].

`COc1ccccc1C1C(C(=O)c2sc(C)nc2C)=C(O)C(=O)N1CCN1CCOCC1` (stereo not given): under setting [1], the AC50 is 14.1 µM [falling, single point].

As to `CCCn1nnc(NC(=O)c2ccccc2Br)n1`, under setting [1], the AC50 is 8.91 µM [falling, partial curve]. On the same count and under the same terms, under `Oc1ccc(Nc2nc(NCC3CCCO3)c3ccccc3n2)cc1` (stereo not given) stands 11.2 µM [falling, partial curve, poor fit]; under `CCCOc1ccc(/C=N/NC(=S)Nc2ccccc2[N+](=O)[O-])c(O)c1`, 0.517 µM [falling, full curve, poor fit]; under `CCCCc1ccc(NC(=O)CC(C)(C)C)cc1`, 2.31 µM [rising, partial curve, poor fit]. Same read-out and setting: under `c1ccc2c(c1)OCC(c1nnc3sc(-c4cnccn4)nn13)O2` (stereo not given) stands 29.1 µM [falling, single point].

As to `CC(C)COC(=O)COc1cc(Cl)c(Cl)cc1Cl`, under setting [1], the AC50 was 0.103 µM [rising, full curve, poor fit]. On the same count and under the same terms, with `COc1ccc(Cl)cc1C(=O)NCC(C)C` the figure was 3.98 µM [rising, partial curve, poor fit]; with `COC(=O)c1cc(OC)c(OC)cc1NC(=S)N1CCC(C(N)=O)CC1`, 2.59 µM [rising, single point]; with `O=C(CCc1nnc(CCCc2ccccc2)o1)NCC(F)(F)F`, 12.6 µM [rising, partial curve, poor fit].

As to `COc1ccc(CCNC(=O)C(=O)NCC2CCCN2S(=O)(=O)c2ccccc2)cc1` (stereo not given), under setting [1], the AC50 is 32.6 µM [falling, single point]. For `CN1C(=O)c2cccc3c(S(=O)(=O)NCc4ccco4)ccc1c23`, the AC50 under setting [2] is 3.26 µM [falling, partial curve, poor fit]. On to `O=C(Nc1ccc(Cc2ccc(NC(=O)C3CC3)c(O)c2)cc1O)C1CC1`, for which, under setting [1], the AC50 was 3.66 µM [rising, full curve, poor fit]. Still for that read-out and setting: under `COc1ccc(-c2cc(-c3ccc(C)cc3)n[nH]2)c(O)c1` stands 10 µM [falling, partial curve, poor fit]. As for `O=C(CSc1nnc(CNC(=O)c2ccc(F)cc2)o1)Nc1ccc2c(c1)OCO2`, the AC50 under setting [1] is 35.5 µM [rising, single point].

Turning to `Cc1cc(=O)n2cc(-c3ccccc3)nc2[nH]1`, the AC50 under setting [1] is 4.11 µM [falling, partial curve]. Turning to `CN1CCN(c2ccc(Cl)cc2NC(=O)c2ccc(S(=O)(=O)N(C)C)cc2)CC1`, under setting [1], the half-maximal activity concentration (AC50) was 3.26 µM [falling, partial curve, poor fit].

`COc1cc(/C=C2\SC(=S)N(NC(=O)c3ccncc3)C2=O)ccc1O`: under setting [1], the AC50 is 35.5 µM [rising, single point]. In the case of `C[C@H](NC(=O)[C@@H]1Cc2ccccc2CN1C(=O)OC(C)(C)C)C(=O)NC1CCCCC1`, the AC50 under setting [1] was 22.4 µM [falling, single point]. Still for that read-out and setting: with `CCc1cc2ccc(OC)cc2nc1SCC(=O)NNC(C)=O` the figure was 15.8 µM [rising, partial curve, poor fit]; with `COc1ccc(/C=[N+](\[O-])C2N(c3ccccc3)C(=S)SC2(C)C)cc1OC` (stereo not given), 5.01 µM [rising, partial curve].

For the compound `O=C(N/N=C/C=C/c1ccco1)c1ccncc1`, under setting [1], the AC50 is 35.5 µM [falling, single point]. On the same count and under the same terms, under `COc1ccc2nc(NC(=O)c3ccccc3[N+](=O)[O-])sc2c1` stands 2.82 µM [falling, full curve]. The same measure, in the same setting: under `COC(=O)c1ccc(COC(=O)C23CC4CC(CC(O)(C4)C2)C3)o1` stands 0.1 µM [rising, full curve, poor fit]; under `CCn1cc(C(=O)N2CCc3ccccc32)c(=O)c2cc(S(=O)(=O)N(C)C3CCCCC3)ccc21`, 25.9 µM [rising, single point]; under `COc1nc(-c2ccccc2)nnc1-c1ccccc1`, 1.26 µM [falling, full curve, poor fit].

As for `COc1ccc(S(=O)(=O)N(Cc2cccs2)C2CCCC2)cc1`, the AC50 under setting [1] was 6.51 µM [rising, single point]. Same read-out and setting: with `CCOC(=O)c1cc(NC(=O)CC(C)(C)CC(=O)O)ccc1N1CCCCC1` the figure was 17.8 µM [rising, partial curve, poor fit]; with `Cc1cccc(-c2noc(CNC(=O)c3ccoc3C)n2)c1`, 10 µM [rising, partial curve, poor fit]; with `Cc1cc(C)nc(SCc2nnc(SCc3ccccc3Cl)o2)n1`, 1.64 µM [rising, full curve, poor fit].

Consider `Cc1ccc(S(=O)(=O)N2CCC(=O)N(C(COCc3ccccc3)Cc3ccccc3)CC2)cc1` (stereo not given), for which the AC50 under setting [1] was 14.6 µM [rising, partial curve, poor fit]. Same read-out and setting: under `COc1ccc(NC(=O)c2ccc3nccnc3c2)cc1` stands 14.6 µM [falling, partial curve, poor fit]; under `CCC(NC(=O)c1ccccc1NC(=O)c1ccc(C)cc1)C(=O)O` (stereo not given), 23.1 µM [falling, partial curve, poor fit]. `Cn1c(SCC(=O)Nc2cccc(S(=O)(=O)N3CCOCC3)c2)nnc1-c1ccncc1`: under setting [1], the AC50 was 25.1 µM [rising, single point]. Same read-out and setting: under `Cc1c(Cl)cccc1NC(=S)N(Cc1cccnc1)Cc1ccccc1Cl` stands 12.6 µM [falling, single point]; under `CCOc1cc(/C=N/OC(C)=O)ccc1OCc1ccccc1`, 0.1 µM [rising, full curve, poor fit]; under `O=C(Nc1nc(-c2cccs2)cs1)C1=COCCO1`, 14.6 µM [falling, single point].
